57 molecules from the supplement of paper PMC4962491 can be followed below.

This test concerns FaDu. In words: mitochondrial oxygen consumption rate normalised to cell number, Z score over the library; higher = higher oxygen consumption (negative = OCR reduction). The settings on record: treatment time 24 h, assay medium: 5 mM galactose, 5 mM pyruvate, 4 mM glutamine. How it is done:
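Primary screen: FaDu cells were incubated 24 h with Pharmakon 1600 / TDI oncology set compounds at 2 or 10 uM. Mitochondrial-specific OCR (basal minus 2 uM antimycin A) was measured on a Seahorse XF96 in assay medium with 5 mM galactose, 5 mM pyruvate and 4 mM glutamine, then corrected for Hoechst cell number and expressed as a Z score […]. Compounds that cut cell number by >66% were excluded. Two repeats.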

± gives the standard deviation of the averaged measurements. The entries are a selection whose mix differs from that of the whole data set. This data set is noisy: repeats of one test often differ as much as different tests do.

Regarding `COc1ccc(CC2c3cc(OC)c(OC)cc3CC[N+]2(C)CCC(=O)OCCCCCOC(=O)CC[N+]2(C)CCc3cc(OC)c(OC)cc3C2Cc2ccc(OC)c(OC)c2)cc1OC` (centres undefined), the “mitochondrial oxygen consumption rate normalised” value (2 µM) is -0.778 ± 0.19. With `CN(C)c1ccc(C(=C2C=CC(=[N+](C)C)C=C2)c2ccc(N(C)C)cc2)cc1`, the “mitochondrial oxygen consumption rate normalised” value (2 µM) was -7.08 ± 0.1. On the same count and under the same terms, in the case of `Cc1nc(-c2ccc(OCC(C)C)c(C#N)c2)sc1C(=O)O` it was 0.413 ± 0.64; in that of `CN(C)CCCN1c2ccccc2Sc2ccc(Cl)cc21`, 0.193 ± 0.66; in that of `O=c1ccc2ccccc2o1`, 0.465 ± 1.7. For the molecule `COc1cc([C@@H]2c3cc4c(cc3[C@@H](O[C@@H]3O[C@@H]5CO[C@@H](c6cccs6)O[C@H]5[C@H](O)[C@H]3O)[C@H]3COC(=O)[C@H]23)OCO4)cc(OC)c1O`, the “mitochondrial oxygen consumption rate normalised” value (2 µM) is -2.54 ± 0.58. For the molecule `O=c1[nH]cnc2c1ncn2[C@@H]1O[C@H](CO)[C@@H](O)[C@H]1O`, the “mitochondrial oxygen consumption rate normalised” value (2 µM) was -1.16 ± 0.35. Same read-out and setting: in the case of `COc1ccnc(C[S+]([O-])c2nc3cc(OC(F)F)ccc3[nH]2)c1OC` (centres undefined) it was -0.759 ± 0.81. Take `Nc1ccn([C@@H]2O[C@H](CO)[C@@H](O)[C@@H]2O)c(=O)n1` [Cytarabine;  Ara-C]: the “mitochondrial oxygen consumption rate normalised” value was determined as 2.76 ± 0.9 (2 µM) and 1.36 ± 0.84 (10 µM). In the case of `Nc1ccn([C@@H]2O[C@H](CO)[C@@H](O)[C@@H]2O)c(=O)n1`, the “mitochondrial oxygen consumption rate normalised” value was 0.73 ± 1.7 (2 µM) and 0.901 ± 0.043 (10 µM). With `O=c1[nH]c(=O)c2ccccc2o1`, the “mitochondrial oxygen consumption rate normalised” value (2 µM) was -0.384 ± 0.92. `Nc1ccc(S(=O)(=O)Nc2ccccn2)cc1`: for the setting “2 µM”, the “mitochondrial oxygen consumption rate normalised” value was -0.988 ± 0.24. Still for that read-out and setting: next, `Cc1ccc(S(=O)(=O)NC(=O)NN2CCCCCC2)cc1`: 0.912 ± 0.093; `COc1cccc(OC)c1C(=O)N[C@@H]1C(=O)N2[C@@H]1SC(C)(C)[C@@H]2C(=O)O`: -0.805 ± 0.5. The same measure, in the same setting: next, `C[C@]12CC[C@@H]3c4ccc(OS(=O)(=O)O)cc4CC[C@H]3[C@@H]1CCC2=O`: -0.146 ± 0.081. On the same count and under the same terms, in the case of `CCN(CC)CCOC(=O)C(c1ccccc1)c1ccccc1` it was 0.272 ± 0.35; in that of `CCOC(=O)c1ccc(N)cc1`, -0.744 ± 1.3; in that of `CC(C)(C)CC(C)(C)c1ccc(O)c(Cc2ccc(Cl)cc2Cl)c1`, -2.65 ± 0.4. With `N[C@@H](Cc1ccc(O)cc1)C(=O)O`, under “2 µM”, the “mitochondrial oxygen consumption rate normalised” value was -0.329 ± 0.53. For the molecule `O=C(COc1ccc(Cl)cc1)N1CCN(Cc2ccc3c(c2)OCO3)CC1`, under “2 µM”, the “mitochondrial oxygen consumption rate normalised” value is -0.284 ± 0.99.

Take `CN(Cc1cnc2nc(N)nc(N)c2n1)c1ccc(C(=O)N[C@@H](CCC(=O)O)C(=O)O)cc1` [Methotrexate]: the “mitochondrial oxygen consumption rate normalised” value (2 µM) stood at 1.08 ± 0.41.

With `CCN(CC)CCNc1ccc(CO)c2sc3ccccc3c(=O)c12`, the “mitochondrial oxygen consumption rate normalised” value (2 µM) was found to be 0.0485 ± 0.37. With `CCOc1ccc2nc3cc(N)ccc3c(N)c2c1`, the “mitochondrial oxygen consumption rate normalised” value is -1.45 ± 0.18 (2 µM) and -3.35 ± 0.25 (10 µM). For `Nc1nc(NC2CC2)c2ncn([C@H]3C=C[C@@H](CO)C3)c2n1`, for the setting “2 µM”, the “mitochondrial oxygen consumption rate normalised” value was found to be 0.661 ± 0.15. On the same count and under the same terms, next, `CN(C)c1ccc(O)c2c1C[C@H]1C[C@H]3[C@H](N(C)C)C(O)=C(C(N)=O)C(=O)[C@@]3(O)C(O)=C1C2=O`: 0.0562 ± 0.62. Consider `CCCCCCCCCCCCCCCCOP(=O)([O-])OCC[N+](C)(C)C`, for which the “mitochondrial oxygen consumption rate normalised” value (2 µM) worked out at 0.0312 ± 0.37 and the “mitochondrial oxygen consumption rate normalised” value (10 µM) was -1.18 ± 0.45.

Regarding `Cc1ccsc1/C=C/C1=NCCCN1C`, the “mitochondrial oxygen consumption rate normalised” value (2 µM) came to 0.0791 ± 1.4.

In the case of `CN(C)[C@@H]1C(O)=C(C(N)=O)C(=O)[C@@]2(O)C(O)=C3C(=O)c4c(O)cccc4[C@@](C)(O)[C@H]3[C@H](O)[C@@H]12`, the “mitochondrial oxygen consumption rate normalised” value (2 µM) is -0.343 ± 0.2 and the “mitochondrial oxygen consumption rate normalised” value (10 µM) is 0.305 ± 0.067. Consider `Cc1cc(-c2ccccc2)nnc1NCCN1CCOCC1`, for which the “mitochondrial oxygen consumption rate normalised” value (2 µM) is -0.795 ± 1.1. On the same count and under the same terms, next, `NC(N)=Nc1nc(CSCC/C(N)=N/S(N)(=O)=O)cs1`: 1.54 ± 0.38; `CSc1ccc2c(c1)N(CCC1CCCCN1C)c1ccccc1S2` (centres undefined): -0.192 ± 0.25; `Cl.N=C(N)NCCC[C@H](N)C(=O)O`: 0.851 ± 0.52. With `CC1=C(/C=C/C(C)=C/C=C/C(C)=C\C(=O)O)C(C)(C)CCC1`, the “mitochondrial oxygen consumption rate normalised” value (2 µM) stood at 0.214 ± 0.5.

On to `CC/C(=C(/CC)c1ccc(O)cc1)c1ccc(O)cc1`, for which, for the setting “2 µM”, the “mitochondrial oxygen consumption rate normalised” value is -0.488 ± 0.7. In the case of `CO[C@H](C(=O)[C@@H](O)[C@@H](C)O)[C@@H]1Cc2cc3cc(O[C@H]4C[C@@H](O[C@@H]5C[C@@H](O)[C@H](O)[C@@H](C)O5)[C@H](O)[C@@H](C)O4)c(C)c(O)c3c(O)c2C(=O)[C@H]1O[C@H]1C[C@@H](O[C@@H]2C[C@@H](O)[C@@H](O[C@@H]3C[C@](C)(O)[C@H](O)[C@@H](C)O3)[C@@H](C)O2)[C@H](O)[C@@H](C)O1`, for the setting “10 µM”, the “mitochondrial oxygen consumption rate normalised” value was -3.768 ± 0.0062. As for `COc1cc(NC(C)CCCN)c2ncccc2c1` (centres undefined), the “mitochondrial oxygen consumption rate normalised” value (2 µM) is -0.512 ± 0.14.

As to `CCCCC1(COC(=O)CCC(=O)O)C(=O)N(c2ccccc2)N(c2ccccc2)C1=O`, the “mitochondrial oxygen consumption rate normalised” value (2 µM) was -0.633 ± 0.51.

With `CCC(=O)c1ccc(O)cc1`, the “mitochondrial oxygen consumption rate normalised” value (2 µM) came out at 1.23 ± 1.1. Still for that read-out and setting: in the case of `Cn1ccnc1S` it was 0.409 ± 0.54; in that of `Nc1c(Br)cc(Br)cc1CN[C@H]1CC[C@H](O)CC1`, -0.508 ± 0.76. Still for that read-out and setting: next, `Oc1ccc(Cl)c2cccnc12`: -0.181 ± 1.1. `CS(=O)(=O)CCNCc1ccc(-c2ccc3ncnc(Nc4ccc(OCc5cccc(F)c5)c(Cl)c4)c3c2)o1` [Lapatinib Ditosylate]: the “mitochondrial oxygen consumption rate normalised” value is, setting by setting: (2 µM) -0.36 ± 1.4; (10 µM) -0.0282 ± 1.2.

As to `CC(C)(Sc1cc(C(C)(C)C)c(O)c(C(C)(C)C)c1)Sc1cc(C(C)(C)C)c(O)c(C(C)(C)C)c1`, under “2 µM”, the “mitochondrial oxygen consumption rate normalised” value was -0.441 ± 0.34.

Take `CCCN(CCC)C(=O)C(CCC(=O)O)NC(=O)c1ccccc1` (centres undefined): the “mitochondrial oxygen consumption rate normalised” value (2 µM) was determined as 0.308 ± 0.12. Same read-out and setting: next, `C/C=C1\NC(=O)[C@H]2CSSCC/C=C/[C@H](CC(=O)N[C@H](C(C)C)C(=O)N2)OC(=O)[C@H](C(C)C)NC1=O` [Romidepsin]: 1.6 ± 0.14.

With `CN1CCC(=C2c3ccccc3CC(=O)c3sccc32)CC1`, the “mitochondrial oxygen consumption rate normalised” value (2 µM) worked out at 0.665 ± 0.2. As for `COc1ccccc1N1CCN(CC(O)COc2cccc3ccccc23)CC1` (centres undefined), the “mitochondrial oxygen consumption rate normalised” value (2 µM) is 0.292 ± 0.2. On the same count and under the same terms, next, `CCN1C(=O)NC(c2ccccc2)C1=O` (centres undefined): 0.719 ± 1.1. Take `O.O.O.O.O=C([O-])CC(O)(CC(=O)[O-])C(=O)[O-].[Li+].[Li+].[Li+]`: the “mitochondrial oxygen consumption rate normalised” value was 0.3 ± 1 (2 µM) and -0.228 ± 1.6 (10 µM). As to `N#CC(c1ccc(Cl)cc1)c1c(Cl)cc(-n2ncc(=O)[nH]c2=O)cc1Cl` (centres undefined), where the note is “2 µM”, the “mitochondrial oxygen consumption rate normalised” value is -1.2 ± 1.7. Same read-out and setting: next, `COc1cc(OC)c(C(=O)CCCN2CCCC2)c(OC)c1`: -0.105 ± 0.1; `CO[C@H]1C[C@H](O[C@H]2[C@H](C)[C@@H](O[C@@H]3O[C@H](C)C[C@H](N(C)C)[C@H]3OC(C)=O)[C@@H](C)C[C@@]3(CO3)C(=O)[C@H](C)[C@@H](OC(C)=O)[C@@H](C)[C@@H](C)OC(=O)[C@@H]2C)O[C@@H](C)[C@@H]1OC(C)=O`: 0.275 ± 0.098; `O=C(O)C1CSCN1` (centres undefined): -0.313 ± 0.61.

Turning to `CC(C)(S)[C@@H](N)C(=O)O`, for the setting “2 µM”, the “mitochondrial oxygen consumption rate normalised” value is -0.921 ± 0.073.

For the molecule `CCC(=O)OCC(=O)[C@@]1(OC(=O)CC)[C@H](C)CC2C3C([C@@H](O)C[C@@]21C)[C@@]1(C)C=CC(=O)C=C1C[C@H]3Cl` (some centres undefined), for the setting “2 µM”, the “mitochondrial oxygen consumption rate normalised” value amounted to 0.479 ± 0.89. The same measure, in the same setting: next, `O=C1O[C@H](CO)[C@@H](O)[C@H](O)[C@H]1O`: -0.159 ± 0.74; `CCCCCCCCCCC[C@@H](C[C@@H]1OC(=O)[C@H]1CCCCCC)OC(=O)[C@H](CC(C)C)NC=O`: -0.119 ± 0.79.
